According to US20150216794A1, “METHODS OF TREATING PAIN ASSOCIATED WITH OSTEOARTHRITIS OF A JOINT WITH A TOPICAL FORMULATION OF A SPIRO-OXINDOLE COMPOUND” (IVAX International GmbH, priority 2014, published 2015):
Where “and” joins values, the source holds several entries; their conditions need not be identical. Equal entries are not always repeated. The source gives many values for each of these; only a part stands here.

How the values were obtained:
[1] = domestic pig joint penetration study: concentration in plasma; format: in vivo
Protocol: This study was conducted to evaluate the joint penetration, systemic plasma exposure and tissue distribution of the spiro-oxindole compound in domestic pigs following topical administration of a pharmaceutical composition utilized in the methods of the invention. Fifteen female pigs were used in this study with three pigs in each group. Beginning on Day 1, a pharmaceutical composition of the invention was topically applied to the left radiocarpal joint (carpus) and tibiotarsal joint (hock) twice daily (bid) for 17 days (34 applications) for Groups 1-4 and once daily (qd) for 17 days (17 applications) for Group 5. Pre-dose blood samples (prior to morning dosing) was collected on Days 2, 7, 10, 14 and 17. A full pharmacokinetic sampling was performed on Day 17 (post am dosing) at the following time points: 1, 2, 4, 8 and 12 hr. On the day of necropsy, Day 18, blood was collected prior to euthanasia, each pig was humanely euthanized and dorsal skin and muscle, liver, kidney, heart, lung, brain, intestine, fat, ovaries, urinary bladder, sciatic nerve, and skin, muscle, synovial membrane, and synovial fluid from all 4 joints (2 treated, left carpus and hock, and 2 untreated, right carpus and hock) was collected.
The dose volume (μL/cm^2) for the test pharmaceutical compositions was 3.0 μL/cm^2 for Groups 1, 2, 3 and 5 and 1.0 μL/cm^2 for Group 4.
Approximately 2 mL of whole blood was collected prior to the morning dose administration on Days 2, 7, 10, 14 and 17. A full pharmacokinetic profile sampling was performed on Day 17 after the morning dose administration at the following time points: 1, 2, 4, 8 and 12 hr. On the day of necropsy, Day 18, blood was collected prior to euthanasia.

[2] = minipig repeated dermal dosing: spiro-oxindole compound in plasma (LC-MS/MS); format: in vivo, Göttingen minipig; conditions: for spiro-oxindole compound in plasma, Mean: male minipigs, dermal ca 70 mg ointment/kg/day
Protocol: The study was carried out on minipigs to obtain information on plasma pharmacokinetics, tissue distribution and accumulation, excretion and metabolic profile of the spiro-oxindole compound after daily dermal administration of a pharmaceutical composition of the invention for 20 consecutive days followed by a single dose of [^14C]-spiro-oxindole compound Day 21.
Midazolam was administered on Days 0 and 20 to 3 male minipigs by bolus intravenous injection at a dose level 0.5 mg/kg.
The [^14C]-spiro-oxindole composition was prepared as follows:
Dosages of test formulations were applied with foil and spread using nitrile gloves to form a thin uniform layer to the treatment site.

[3] = minipig: tissue distribution of radioactivity and unchanged compound; format: in vivo, Göttingen minipig
Text: The following tissues/organs were removed from the remaining carcass:
The urinary bladder from each animal was rinsed with saline and the washings discarded. Each section of the gastrointestinal tract wall was washed to remove contents (which were retained for analysis) prior to analysis. Remaining carcasses were discarded.

## O=C1N(Cc2ccc(C(F)(F)F)o2)c2ccccc2[C@]12COc1cc3c(cc12)OCO3 [spiro-oxindole compound, (S)-1′-{[5-(trifluoromethyl)furan-2-yl]methyl}spiro[furo[2,3-f][1,3]benzodioxole-7,3′-indol]-2′(1′H)one]
[1]; G4 (#10-#12): 8% composition, 1.0 μL/cm^2 bid, Day 7 Before dosing
  concentration in plasma, individual animals: 0.00482 µg/mL and 0.00189 µg/mL and 0.00099 µg/mL
[1]; G4 (#10-#12): 8% composition, 1.0 μL/cm^2 bid, Day 10 Before dosing
  concentration in plasma, individual animals: 0.0011 µg/mL and 0.00124 µg/mL and 0.00188 µg/mL
[1]; G4 (#10-#12): 8% composition, 1.0 μL/cm^2 bid, Day 14 Before dosing
  concentration in plasma, individual animals: 0.0019 µg/mL and 0.00263 µg/mL and 0.00214 µg/mL
[1]; G4 (#10-#12): 8% composition, 1.0 μL/cm^2 bid, Day 17 1 hour after dosing
  concentration in plasma, individual animals: 0.00262 µg/mL and 0.00522 µg/mL and 0.00101 µg/mL
[1]; G4 (#10-#12): 8% composition, 1.0 μL/cm^2 bid, Day 17 2 hour after dosing
  concentration in plasma, individual animals: 0.00351 µg/mL and 0.00357 µg/mL and 0.00194 µg/mL
[1]; G4 (#10-#12): 8% composition, 1.0 μL/cm^2 bid, Day 17 4 hour after dosing
  concentration in plasma, individual animals: 0.00227 µg/mL and 0.00203 µg/mL and 0.00274 µg/mL
[1]; G4 (#10-#12): 8% composition, 1.0 μL/cm^2 bid, Day 17 8 hour after dosing
  concentration in plasma, individual animals: 0.00129 µg/mL and 0.00215 µg/mL and 0.00283 µg/mL
[1]; G4 (#10-#12): 8% composition, 1.0 μL/cm^2 bid, Day 17 12 hour after dosing
  concentration in plasma, individual animals: 0.00998 µg/mL and 0.01516 µg/mL and 0.02437 µg/mL
[1]; G4 (#10-#12): 8% composition, 1.0 μL/cm^2 bid, Day 17 Before dosing
  concentration in plasma, individual animals: 0.00112 µg/mL and 0.00072 µg/mL and 0.00141 µg/mL
[1]; G4 (#10-#12): 8% composition, 1.0 μL/cm^2 bid, Day 18
  concentration in plasma, individual animals: 0.00109 µg/mL and 0.00236 µg/mL and 0.00134 µg/mL
[1]; G5 (#13-#15): 8% composition, 3.0 μL/cm^2 qd, Day 2 Before dosing
  concentration in plasma, individual animals: 0.00268 µg/mL and 0.00126 µg/mL and 0.00043 µg/mL
[1]; G5 (#13-#15): 8% composition, 3.0 μL/cm^2 qd, Day 7 Before dosing
  concentration in plasma, individual animals: 0.00334 µg/mL and 0.00092 µg/mL and 0.00129 µg/mL
[1]; G5 (#13-#15): 8% composition, 3.0 μL/cm^2 qd, Day 10 Before dosing
  concentration in plasma, individual animals: 0.00114 µg/mL and 0.00187 µg/mL and 0.00107 µg/mL
[1]; G5 (#13-#15): 8% composition, 3.0 μL/cm^2 qd, Day 14 Before dosing
  concentration in plasma, individual animals: 0.00277 µg/mL and 0.00274 µg/mL and 0.00153 µg/mL
[1]; G5 (#13-#15): 8% composition, 3.0 μL/cm^2 qd, Day 17 1 hour after dosing
  concentration in plasma, individual animals: 0.00349 µg/mL and 0.00067 µg/mL and 0.00249 µg/mL
[1]; G5 (#13-#15): 8% composition, 3.0 μL/cm^2 qd, Day 17 2 hour after dosing
  concentration in plasma, individual animals: 0.00353 µg/mL and 0.00165 µg/mL and 0.00256 µg/mL
[1]; G5 (#13-#15): 8% composition, 3.0 μL/cm^2 qd, Day 17 4 hour after dosing
  concentration in plasma, individual animals: 0.0037 µg/mL and 0.00185 µg/mL and 0.00128 µg/mL
[1]; G5 (#13-#15): 8% composition, 3.0 μL/cm^2 qd, Day 17 8 hour after dosing
  concentration in plasma, individual animals: 0.00421 µg/mL and 0.00722 µg/mL and 0.001 µg/mL
[1]; G5 (#13-#15): 8% composition, 3.0 μL/cm^2 qd, Day 17 12 hour after dosing
  concentration in plasma, individual animals: 0.0106 µg/mL and 0.00497 µg/mL and 0.00847 µg/mL
[1]; G5 (#13-#15): 8% composition, 3.0 μL/cm^2 qd, Day 17 Before dosing
  concentration in plasma, individual animals: 0.00217 µg/mL and 0.00063 µg/mL and 0.00099 µg/mL
[1]; G5 (#13-#15): 8% composition, 3.0 μL/cm^2 qd, Day 18
  concentration in plasma, individual animals: 0.0021 µg/mL and 0.00096 µg/mL and 0.00494 µg/mL
[2]; Predose Day 2
  spiro-oxindole compound in plasma, Mean: 1.43 ng/mL
[2]; Predose Day 14
  spiro-oxindole compound in plasma, Mean: 5.86 ng/mL
[2]; Predose Day 21
  spiro-oxindole compound in plasma, Mean: 3.33 ng/mL
[2]; minipigs, 24 hours post last dose (Day 21)
  mean plasma concentration of spiro-oxindole compound: 6060 µg/mL
[3]; bone marrow
  mean radioactivity concentration: 154 ng equivalents spiro-oxindole compound/g
[3]; fatty tissue, abdominal (white fat)
  mean radioactivity concentration: 273 ng equivalents spiro-oxindole compound/g
[3]; fatty tissue, brown
  mean radioactivity concentration: 100 ng equivalents spiro-oxindole compound/g
[3]; gall bladder contents
  mean radioactivity concentration: 4870 ng equivalents spiro-oxindole compound/g
[3]; heart
  total radioactivity: 18.5 ng equiv spiro-oxindole compound/g
[3]; liver
  total radioactivity: 74.9 ng equiv spiro-oxindole compound/g
[3]; muscle underlying the dose site
  mean radioactivity concentration: 142 ng equivalents spiro-oxindole compound/g
[3]; skin from the dose site
  mean radioactivity concentration: 25500 ng equivalents spiro-oxindole compound/g
[3]; skin remote from the dose site
  mean radioactivity concentration: 111 ng equivalents spiro-oxindole compound/g
